Measurements published in patent publication US20260022170A1.
These are yes or no findings as the source states them, for the method shown. Some entries that bind do so weakly or less than the wild type.

How the values were obtained:
[1] = target: T1, truncated version of Siglec-9 that only contains the V domain (human) (UniProt Q9Y336); test: ELISA on truncated Siglec-9 (V domain only), hybridoma screening
T1 sequence: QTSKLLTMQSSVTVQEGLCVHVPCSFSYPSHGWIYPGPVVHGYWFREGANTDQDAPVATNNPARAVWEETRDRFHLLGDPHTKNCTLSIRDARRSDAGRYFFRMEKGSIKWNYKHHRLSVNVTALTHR

[2] = target: human Siglec-9 protein (recombinant; construct not stated) (human) (UniProt Q9Y336); test: BLI, antibody in Fab format at 250 nM
[3] = target: recombinant Siglec-9 (SinoBiological, 30109-H03H) (human) (UniProt Q9Y336); test: ELISA on coated recombinant Siglec-9, OD against antibody concentration (FIG. 11)
[4] = target: human Siglec-9 expressed on cells (human) (UniProt Q9Y336); test: flow cytometry on human M1-like and M2-like macrophages expressing Siglec-9
[5] = target: human Siglec-9 protein (recombinant; construct not stated) (human) (UniProt Q9Y336); test: ELISA on recombinant Siglec-9

B1: anti-Siglec-9 monoclonal antibody clone ED2D5 (antibody, V domains shown)
VH: EVQLVESGGGLVKPGGSLKLSCAASGFTFSDYYMYWVRQTPEKRLEWVATISDGGSDTYYPDNMKGRFTISRDNAKNNLYLQMSSLKSEDTAMYYCTRDPDYDDGRFAYWGQGTLVTVSA
VL: DIVMTQSHKFMSTSVGDRVSITCKASQDVGTVVAWYQQKSGQSPKLLIYWSSTRHTGVPDRFTGSGSGTDFTLTISNVQSEDLADYFCQQYIDYPLSFGAGTKLELK
- binding [1]: binds

B2: CB6B3 in Fab format (Fab, V domains shown)
VH: EVQLQQSGAEVVRPGALVKLSCKAAGFNIKDYFIHWVKQRPEQGLEWIGLIDPENDNTMYDPRFQVKASLTADTSSNTAYLQLSRLTSEDAAVYYCASTVVARSFDYWGQGTTLTVSS
VL: SIVMTQTPKFLLVSAGDRVTITCKASQSVSNDVAWYQQKSGQSPKLLIYYTSNRYTGVPDRFTGSGYGTDFTFTISTVQAEDLAVYFCQQDFRSPFTFGAGTKLELK
- binding [2]: binds

B3: anti-Siglec-9 monoclonal antibody clone CB6B3 (parental mouse antibody) (antibody, V domains shown)
VH: B2 VH
VL: B2 VL
- binding [1]: binds

B4: humanised CB6B3 (huCB6B3) (antibody, V domains shown)
VH: EVQLVQSGAEVKKPGATVKISCKVSGYTFTDYFIHWVQQAPGKGLEWMGLIDPENDNTMYDPRFQVRVTITADTSTDTAYMELSSLRSEDTAVYYCASTVVARSFDYWGQGTTVTVSS
VL: AIQMTQSPSSLSASVGDRVTITCKASQSVSNDVAWYQQKPGKAPKLLIYYTSNRYTGVPSRFSGSGSGTDFTLTISSLQPEDFATYYCQQDFRSPFTFGGGTKVEIK
- binding [3]: binds
- binding [4]: binds
- binding [5]: binds
